No constants are given. Whether binding was seen depends on the method and setting. In cells and extracts the contact can be indirect. Some results given as binding are weak or reduced against the parent protein; the word gives no strength. Sequences can lack the tags named with a protein.

The chains behind the UniProt entries cited, without tags or fusion partners.
UniProt Q04206: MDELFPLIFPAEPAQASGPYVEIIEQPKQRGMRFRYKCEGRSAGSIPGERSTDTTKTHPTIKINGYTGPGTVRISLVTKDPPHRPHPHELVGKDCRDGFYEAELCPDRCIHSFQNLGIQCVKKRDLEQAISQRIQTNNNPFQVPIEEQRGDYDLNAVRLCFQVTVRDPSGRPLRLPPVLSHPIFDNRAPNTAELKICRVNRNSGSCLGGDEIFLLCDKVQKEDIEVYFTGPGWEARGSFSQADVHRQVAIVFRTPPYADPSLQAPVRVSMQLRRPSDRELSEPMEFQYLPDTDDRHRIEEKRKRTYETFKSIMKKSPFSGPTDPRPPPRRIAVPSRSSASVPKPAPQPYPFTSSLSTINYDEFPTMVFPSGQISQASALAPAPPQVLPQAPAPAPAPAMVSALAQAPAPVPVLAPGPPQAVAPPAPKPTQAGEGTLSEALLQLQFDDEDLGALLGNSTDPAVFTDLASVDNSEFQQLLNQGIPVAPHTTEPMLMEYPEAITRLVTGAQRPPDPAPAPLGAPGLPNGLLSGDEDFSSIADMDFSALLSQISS

The test deals with T1, iASPP(295–828)-v5 (UniProt Q8WUF5).
T1 sequence: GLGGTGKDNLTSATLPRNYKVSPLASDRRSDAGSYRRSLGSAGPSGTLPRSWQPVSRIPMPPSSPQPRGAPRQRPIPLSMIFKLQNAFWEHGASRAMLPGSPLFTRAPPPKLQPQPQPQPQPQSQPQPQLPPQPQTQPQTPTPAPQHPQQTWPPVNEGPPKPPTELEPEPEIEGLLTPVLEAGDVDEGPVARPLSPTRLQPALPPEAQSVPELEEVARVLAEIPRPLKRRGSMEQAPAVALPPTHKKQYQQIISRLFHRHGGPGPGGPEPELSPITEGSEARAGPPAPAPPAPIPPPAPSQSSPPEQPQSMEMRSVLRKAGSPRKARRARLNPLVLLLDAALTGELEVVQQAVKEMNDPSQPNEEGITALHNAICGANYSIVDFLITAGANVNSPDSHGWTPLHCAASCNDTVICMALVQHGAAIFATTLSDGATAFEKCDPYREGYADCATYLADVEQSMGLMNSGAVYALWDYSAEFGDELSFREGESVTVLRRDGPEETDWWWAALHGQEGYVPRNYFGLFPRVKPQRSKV
The test is described as follows: co-IP; in vitro translated proteins diluted in PBS; similar levels of p53-myc or NF-κBp65-myc mixed with the same amount of iASPP-v5; precipitated with anti-v5, co-precipitate detected with anti-myc by western blot. For orientation: A western blot detects proteins with antibodies after separation by electrophoresis.

With “NF-κBp65-myc (from UniProt Q04206 1-551)”, the binding entry is “binds”.
